Drug key:
perifosine: CCCCCCCCCCCCCCCCCCOP(=O)([O-])OC1CC[N+](C)(C)CC1 at 2000 nM
A-769662: N#Cc1c(O)c2c(-c3ccc(-c4ccccc4O)cc3)csc2[nH]c1=O at 10000 nM
GSK650394: O=C(O)c1ccc(-c2c[nH]c3ncc(-c4ccccc4)cc23)cc1C1CCCC1 at 800 nM
L-779450: Oc1cc(-c2nc(-c3ccccc3)[nH]c2-c2ccncc2)ccc1Cl at 1000 nM
dorsomorphin: c1cc(-c2cnn3cc(-c4ccc(OCCN5CCCCC5)cc4)cnc23)ccn1 at 2000 nM
OSU-03012: NCC(=O)Nc1ccc(-n2nc(C(F)(F)F)cc2-c2ccc3c(ccc4ccccc43)c2)cc1 at 5000 nM
KU-0063794: COc1ccc(-c2ccc3c(N4CCOCC4)nc(N4C[C@@H](C)O[C@@H](C)C4)nc3n2)cc1CO at 100 nM
cisplatin: N.N.[Cl][Pt][Cl] at 8000 nM
FH535: Cc1cc([N+](=O)[O-])ccc1NS(=O)(=O)c1cc(Cl)ccc1Cl at 5000 nM
XAV939: Oc1nc(-c2ccc(C(F)(F)F)cc2)nc2c1CSCC2 at 10000 nM
enzastaurin: Cn1cc(C2=C(c3cn(C4CCN(Cc5ccccn5)CC4)c4ccccc34)C(=O)NC2=O)c2ccccc21 at 4000 nM
NVP-TAE684: COc1cc(N2CCC(N3CCN(C)CC3)CC2)ccc1Nc1ncc(Cl)c(Nc2ccccc2S(=O)(=O)C(C)C)n1 at 400 nM

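The test systems are human melanoma cell lines, treated with a pair of drugs for 72 h and then stained and imaged. Values are the share of nuclei positive for cleaved PARP as a percentage of the same share in the DMSO control: 100 is the control level, higher means more apoptosis. Every drug was used at one fixed concentration, the higher of two screened. No replicate spread is given; individual values may be noisy. The marker varies much from line to line, for technical or biological reasons.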 This is part of the screen, not chosen by result. A dash means that no value is listed here.

Combination,RPMI-7951,UACC-62,A375,SK-MEL-28,WM3619,WM3526,IST-MEL1,WM1745,A2058,SK-MEL-30,G-361,COLO 792,SK-MEL-5,SK-MEL-2,WM1716
cisplatin + GSK650394,47.8,33.6,-,47.2,105,145,223,94.3,197,66.1,94.0,164,97.9,162,80.5
NVP-TAE684 + KU-0063794,96.1,502,99.7,246,178,193,109,187,342,37.0,36.0,139,334,59.3,214
L-779450 + OSU-03012,84.4,442,262,273,3410,352,35.1,182,131,272,216,154,694,1040,105
dorsomorphin + OSU-03012,206,399,112,984,155,432,149,159,138,1460,436,132,121,380,69.9
cisplatin + perifosine,235,107,129,76.7,112,282,185,87.8,79.4,152,205,156,166,160,87.5
FH535 + enzastaurin,116,185,168,287,102,128,141,-,123,137,150,107,158,-,59.2
dorsomorphin + perifosine,250,265,257,107,122,98.3,86.3,-,162,143,284,73.4,86.6,89.7,45.4
NVP-TAE684 + L-779450,180,1140,180,141,150,532,61.3,411,280,35.3,357,76.6,211,1640,123
L-779450 + GSK650394,102,506,220,78.9,154,613,69.7,155,108,83.5,285,50.5,144,623,129
A-769662 + perifosine,98.5,140,74.7,195,91.4,163,51.2,-,152,69.9,213,177,128,121,83.3
cisplatin + KU-0063794,162,302,203,218,122,194,167,-,149,111,146,94.0,219,114,124
NVP-TAE684 + OSU-03012,79.9,544,398,221,117,384,134,443,237,374,155,178,894,501,161
enzastaurin + NVP-TAE684,646,363,150,127,107,337,140,-,462,106,339,95.7,73.7,103,367
KU-0063794 + FH535,82.9,158,122,55.0,93.4,97.9,533,155,119,81.0,252,107,242,36.9,85.8
XAV939 + A-769662,40.9,42.5,7.8,49.2,133,52.1,192,108,212,41.4,104,59.4,105,84.8,87.4
A-769662 + dorsomorphin,77.0,49.4,85.6,34.4,101,52.9,88.8,274,171,119,105,55.3,86.7,89.0,127
XAV939 + NVP-TAE684,63.3,101,48.3,108,140,64.6,109,213,258,74.4,78.2,135,131,150,102
XAV939 + KU-0063794,80.7,117,51.9,116,159,22.9,63.9,138,167,94.6,40.8,24.4,126,73.7,163
KU-0063794 + A-769662,114,133,48.8,103,149,63.0,145,86.9,45.6,133,34.1,74.1,60.2,150,27.1
GSK650394 + enzastaurin,191,129,-,213,83.5,418,177,732,291,73.9,226,43.2,79.0,93.9,922
cisplatin + dorsomorphin,204,123,210,127,109,148,48.1,-,128,141,166,89.5,158,76.0,41.0
XAV939 + FH535,78.4,145,80.5,48.5,135,82.7,48.1,118,143,140,588,209,339,64.3,87.4
KU-0063794 + dorsomorphin,48.0,20.1,201,248,109,187,67.1,142,158,229,189,35.0,379,84.5,135
perifosine + FH535,338,86.3,455,134,120,55.3,188,-,130,127,340,329,185,34.9,103
cisplatin + FH535,175,90.3,401,186,106,390,171,-,87.2,174,506,140,53.1,61.8,548
L-779450 + enzastaurin,75.1,381,322,51.1,77.7,85.0,200,-,144,140,158,60.3,120,190,168
enzastaurin + KU-0063794,229,169,84.4,797,101,217,34.7,-,154,142,72.4,170,49.2,905,45.7
GSK650394 + XAV939,206,219,51.1,275,146,101,188,240,141,80.5,130,72.4,60.9,63.3,58.9
KU-0063794 + perifosine,116,164,184,99.0,101,78.9,47.2,-,154,51.2,172,95.8,73.1,57.4,258
cisplatin + A-769662,55.2,98.4,221,262,126,139,190,-,242,129,83.9,71.6,77.3,114,42.9
L-779450 + FH535,77.2,735,154,192,122,254,155,303,177,99.0,263,98.4,216,484,162
NVP-TAE684 + cisplatin,58.8,164,284,47.9,156,231,149,-,123,113,124,91.0,134,113,196
L-779450 + KU-0063794,79.8,591,157,46.6,148,200,67.7,164,80.7,72.2,217,55.4,148,622,91.1
perifosine + L-779450,254,701,187,58.0,250,145,46.3,-,150,254,197,103,177,536,87.8
enzastaurin + perifosine,339,219,72.8,69.6,93.6,176,83.6,126,185,31.0,31.0,61.5,97.4,168,92.7
cisplatin + OSU-03012,55.7,87.1,-,136,111,308,131,63.7,36.0,228,70.4,186,325,-,104

Data from the primary screen of doi:10.1371/journal.pone.0140310, rounded.